These are yes or no findings as the source states them, for the method shown. Some results given as binding are weak or reduced against the parent protein; the word gives no strength.
Tests used:
[1] = molecular target: soluble RAGE (sRAGE), containing the extracellular ligand-binding domain of RAGE (UniProt Q15109); assay: ELISA; competitive assay; sRAGE (10 nM) coated on the plate; HMGB1 with indicated concentrations of rCD93D123, rCD93D1, rCD93D23 or BSA in reaction buffer overnight at 4 °C; detected with anti-HMGB1 antibody; both purified
[2] = molecular target: T1, soluble recombinant human CD93 lectin-like domain rCD93D1 (Thr22-Gly177) (human) (UniProt Q9NPY3); assay: ELISA; solid-phase binding assay; rCD93D123, rCD93D1, rCD93D23 or BSA coated on the plate; indicated doses of HMGB1 in 1 mg/ml BSA, 20 mM Tris-HCl, 0.15 M NaCl, 5 mM CaCl2 overnight at 4 °C; detected with anti-HMGB1 antibody; both purified
T1 sequence: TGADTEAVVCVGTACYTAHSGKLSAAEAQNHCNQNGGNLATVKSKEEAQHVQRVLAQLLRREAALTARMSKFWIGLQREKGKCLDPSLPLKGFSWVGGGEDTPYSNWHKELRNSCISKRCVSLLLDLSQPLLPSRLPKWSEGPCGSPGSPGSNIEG

By UniProt entry, the sequences of proteins in these tests, tags left out. Residues count along the entry.
UniProt Q15109, residues 23-342: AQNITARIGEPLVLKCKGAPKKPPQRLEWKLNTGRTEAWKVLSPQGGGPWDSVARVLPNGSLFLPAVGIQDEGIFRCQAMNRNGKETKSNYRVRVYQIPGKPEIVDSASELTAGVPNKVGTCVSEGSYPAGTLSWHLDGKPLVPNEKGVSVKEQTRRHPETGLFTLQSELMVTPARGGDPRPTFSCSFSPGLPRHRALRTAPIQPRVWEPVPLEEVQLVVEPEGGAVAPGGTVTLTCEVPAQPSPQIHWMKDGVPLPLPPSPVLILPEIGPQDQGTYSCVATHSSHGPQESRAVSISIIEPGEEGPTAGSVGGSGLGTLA

[3] = molecular target: soluble recombinant human CD93 ectodomain protein rCD93D23 (Val258-Lys580) (human) (UniProt Q9NPY3); assay: far-Western, overlay or dot blot; rCD93D1, rCD93D23, rCD93D123 and BSA separated by 10% SDS-PAGE, transferred to PVDF membrane, hybridized with HMGB1 (0.5 μg/ml) in PBS overnight at 4 °C; detected with anti-HMGB1 antibody; both purified
[4] = molecular target: T1, soluble recombinant human CD93 lectin-like domain rCD93D1 (Thr22-Gly177) (human); assay: as above

- binding [1]: binds
- binding [2]: binds
- binding [3]: binds weakly
- binding [4]: binds
B1: recombinant human high-mobility group box 1 (HMGB1) protein (natural protein, UniProt P09429 1-215, looked up)
chain: MGKGDPKKPRGKMSSYAFFVQTCREEHKKKHPDASVNFSEFSKKCSERWKTMSAKEKGKFEDMAKADKARYEREMKTYIPPKGETKKKFKDPNAPKRPPSAFFLFCSEYRPKIKGEHPGLSIGDVAKKLGEMWNNTAADDKQPYEKKAAKLKEKYEKDIAAYRAKGKPDAAKKGVVKAEKSKKKKEEEEDEEDEEDEEEEEDEEDEDEEEDDDDE
notes: High-mobility group box 1 protein, human, recombinant; No catalogue number is printed; source: bought: R&D Systems
